Results on two molecules are retold here after PMC11843928.

This experiment has as its target T1, GPA1-nLuc (canonical Arabidopsis Gα subunit GPA1 fused to the N-terminal luciferase fragment) (Arabidopsis thaliana) (UniProt P18064).
T1 sequence: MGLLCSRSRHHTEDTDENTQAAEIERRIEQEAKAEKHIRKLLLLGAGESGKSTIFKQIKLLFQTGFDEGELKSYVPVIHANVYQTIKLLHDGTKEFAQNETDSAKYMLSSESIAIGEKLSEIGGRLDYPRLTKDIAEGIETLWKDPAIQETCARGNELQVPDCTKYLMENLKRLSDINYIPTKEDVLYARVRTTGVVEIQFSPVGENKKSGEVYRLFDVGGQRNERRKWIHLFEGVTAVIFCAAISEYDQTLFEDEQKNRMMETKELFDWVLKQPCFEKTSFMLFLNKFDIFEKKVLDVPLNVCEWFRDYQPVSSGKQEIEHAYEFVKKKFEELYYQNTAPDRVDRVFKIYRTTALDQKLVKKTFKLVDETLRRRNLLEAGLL
Briefly: split reporter; split luciferase; GPA1-nLuc with cLuc fusions, luminescence compared with the GPA1-nLuc + EV-cLuc parent vector control; performed 3 independent times.

Results are given in words; binding and its absence hold for the method and conditions named. Binding seen in cells or lysates may run through a third protein. Some results given as binding are weak or reduced against the parent protein; the word gives no strength. Where a sequence is shown, tags or fusion partners need not be part of it.

B1: RGS1-cLuc (7TM RGS1 protein fused to the C-terminal luciferase fragment) (protein, UniProt Q8H1F2 1-459)
chain: MASGCALHGGCPSDYVAVAISVICFFVLLSRSVLPCLIHKAPRTNSSSFWIPVIQVISSFNLLFSIMMSVNLLRFRTKHWWRYCYLWAVWIEGPLGFGLLMSCRITQAFQLYFIFVKKRLPPVKSYIFLPLVLLPWIFGAAIIHATKPLNDKCHMGLQWTFPVAGLHALYVLALIAFTRAVRHVEFRFDELRDLWKGILVSATSIVIWVTAFVLNEIHEEISWLQVASRFVLLVTGGILVVVFFSISSNQPLLSQISLKKRQNFEFQRMGQALGIPDSGLLFRKEEFRPVDPNEPLDKLLLNKRFRHSFMEFADSCYAGETLHFFEEVYEHGKIPEDDSIRRIYMARHIMEKFIVAGAEMELNLSHKTRQEILTTQDLTHTDLFKNALNEVMQLIKMNLVRDYWSSIYFIKFKEEESCHEAMHKEGYSFSSPRLSSVQGSDDPFYQEHMSKSSRCSSPG
Take B1: the binding result is “binds”.

B2: AtGCR1-cLuc (Arabidopsis thaliana GCR1 fused to the C-terminal luciferase fragment) (receptor, UniProt O04714 1-326)
chain: MSAVLTAGGGLTAGDRSIITAINTGASSLSFVGSAFIVLCYCLFKELRKFSFKLVFYLALSDMLCSFFLIVGDPSKGFICYAQGYTTHFFCVASFLWTTTIAFTLHRTVVKHKTDVEDLEAMFHLYVWGTSLVVTVIRSFGNNHSHLGPWCWTQTGLKGKAVHFLTFYAPLWGAILYNGFTYFQVIRMLRNARRMAVGMSDRVDQFDNRAELKVLNRWGYYPLILIGSWAFGTINRIHDFIEPGHKIFWLSVLDVGTAALMGLFNSIAYGFNSSVRRAIHERLELFLPERLYRWLPSNFRPKNHLILHQQQQQRSEMVSLKTEDQQ
Take B2: the binding entry is given as “binds”.
